Results on 21 compounds are retold here after PubChem BioAssay AID220 (DTP/NCI, 2004).

This test has as its system CD8F1 mice, subcutaneous mammary adenocarcinoma, T/C%. Kind of test: NCI In Vivo Anticancer Drug Screen. Data for tumor model Mammary Adenocarcinoma CD8F1 (subcutaneous) in CD8F1. Conditions: higher T/C = larger tumour. The method, boiled down:
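Tumor-bearing mice, transplantable model; readout survival or tumor size; value = treated (T) / vehicle control (C).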

The mark [1] stands for this setting: T/C endpoint: median tumor weight change, dose: 500.0 mg/kg/injection, schedule: Q01DX001 (ip), vehicle: Klucel (hydroxypropylcellulose) (HPC).
Where [2] appears, read: T/C endpoint: median tumor weight change, dose: 2000.0 mg/kg/injection, schedule: Q01DX001 (ip), vehicle: Klucel (hydroxypropylcellulose) (HPC).

Each structure is given as a SMILES string. The list shows only some results of the screen, not a fair sample: it gathers tests that were run many times, whatever their T/C, doses with no T/C, and many T/C values between a quarter and a half above the control. Other doses and runs of a compound stand elsewhere. T/C gives the treated animals as a percentage of the vehicle group. Schedules are NCI's codes, taken here to give the interval after Q, in days (D) or hours (H), and the number of doses after X. Some T/C values carry the count of animals alive at the toxicity check (mostly the fifth day); where none is given, no animal had died by that day. Some entries were tested several times; the values are given in rising order. Some values lie below zero, which means that the treated tumours became smaller. Some doses have a count of surviving animals in place of a T/C: the source files T/C as zero there, which appears to mark a toxic dose or a test without result, not a measured value. Counts of survivors are from the toxicity check (mostly the fifth day) where no day follows; animals may have died later.

Regarding `C[n+]1c(/C=C\C=C\N2CCCCC2)sc2ccccc21`, the T/C (T/C endpoint: median tumor weight (est.), dose: 0.25 mg/kg/injection, schedule: Q07DX005 (ip), vehicle: Klucel (hydroxypropylcellulose) (HPC), evaluated on day 30) is 127 % of control and the T/C (T/C endpoint: median tumor weight (est.), dose: 2.0 mg/kg/injection, schedule: Q07DX005 (ip), vehicle: Klucel (hydroxypropylcellulose) (HPC), evaluated on day 30) was 144 % of control [7 of 10 alive on day 30]. Moreover, the survivor count by setting is: (T/C endpoint: median tumor weight (est.), dose: 4.0 mg/kg/injection, schedule: Q07DX005 (ip), vehicle: Klucel (hydroxypropylcellulose) (HPC)) 4 of 10 on day 30; (T/C endpoint: median tumor weight (est.), dose: 8.0 mg/kg/injection, schedule: Q07DX005 (ip), vehicle: Klucel (hydroxypropylcellulose) (HPC)) 0 of 10 on day 30.

In the case of `COc1cccc2c1C(=O)c1c(O)c3c(c(O)c1C2=O)CC(O)(C(=O)CO)CC3OC1CC(N)C(O)C(C)O1` (configuration not stated), the survivor count (T/C endpoint: median tumor weight (est.), dose: 67.0 mg/kg/injection, schedule: Q07DX005 (ip), vehicle: water) is on record as 4 of 10.

Turning to `COP12(OCCO1)SC(C(F)(F)F)=C(C(F)(F)F)S2`, the survivor count (T/C endpoint: median tumor weight (est.), dose: 800.0 mg/kg/injection, schedule: Q07DX005 (ip), vehicle: saline) is recorded as 0 of 10 on day 30.

As to `CC1=CC(=Nc2ccc(N(CCCl)CCCl)cc2)C=C(C)C1=O`, the survivor count reads like this: (T/C endpoint: median tumor weight (est.), dose: 100.0 mg/kg/injection, schedule: Q07DX005 (ip), vehicle: Klucel (hydroxypropylcellulose) (HPC)) 3 of 10 on day 30; (T/C endpoint: median tumor weight (est.), dose: 200.0 mg/kg/injection, schedule: Q07DX005 (ip), vehicle: Klucel (hydroxypropylcellulose) (HPC)) 0 of 10 on day 30.

In the case of `O=c1[nH]c2c(ccc3cnccc32)c2c1CCC2`, the T/C (T/C endpoint: median tumor weight (est.), dose: 12.5 mg/kg/injection, schedule: Q07DX005 (ip), vehicle: saline, evaluated on day 30) was 131 % of control.

With `CC1C=NNC1=O` (configuration not stated), the T/C (T/C endpoint: median tumor weight (est.), dose: 800.0 mg/kg/injection, schedule: Q07DX005 (ip), vehicle: Klucel (hydroxypropylcellulose) (HPC), evaluated on day 30) was 131 % of control.

Turning to `CN(C)C(=O)SC1=C(c2c(Cl)cccc2Cl)C(=O)c2ccccc21`, the survivor count under setting [1] is reported as 6 of 10 on day 30.

Turning to `O=C(Nc1nncs1)c1ccncc1`, the T/C (T/C endpoint: median tumor weight (est.), dose: 12.5 mg/kg/injection, schedule: Q07DX005 (ip), vehicle: saline with Tween-80, evaluated on day 30) was 128 % of control.

Regarding `CC(=O)Oc1ccccc1O`, the survivor count runs as follows: (T/C endpoint: median tumor weight change, dose: 500.0 mg/kg/injection, schedule: Q01DX001 (ip), vehicle: saline + Tween-80 + alcohol) 0 of 10 on day 35; (T/C endpoint: median tumor weight change, dose: 1000.0 mg/kg/injection, schedule: Q01DX001 (ip), vehicle: saline + Tween-80 + alcohol) 0 of 10 on day 35.

In the case of `CC(=Nc1ccccc1)C1=C(O)C(Cc2ccccc2)NC1=O` (configuration not stated), under “T/C endpoint: median tumor weight (est.), dose: 50.0 mg/kg/injection, schedule: Q07DX005 (ip), vehicle: saline with Tween-80, evaluated on day 30”, the T/C was 130 % of control.

For the compound `N=c1c(C(=O)OCc2ccccc2)ncc(CCl)n1O`, under “T/C endpoint: median tumor weight change, dose: 2000.0 mg/kg/injection, schedule: Q01DX001 (ip), vehicle: saline with Tween-80”, the survivor count is 2 of 10 on day 25 and 2 of 10 on day 38.

`Clc1ccc(C2SC=Cc3ccccc32)cc1` (configuration not stated): the survivor count is 0 of 10 on day 28 under setting [1]; 0 of 10 on day 28, 0 of 10 on day 36, 0 of 10 on day 39 (T/C endpoint: median tumor weight change, dose: 1000.0 mg/kg/injection, schedule: Q01DX001 (ip), vehicle: Klucel (hydroxypropylcellulose) (HPC)); 1 of 10 on day 39 under setting [2].

On to `Cc1cc(C)c(-c2cc(O)c(C)cc2O)c(C)c1`, for which the T/C (T/C endpoint: median tumor weight (est.), dose: 12.5 mg/kg/injection, schedule: Q07DX005 (ip), vehicle: Klucel (hydroxypropylcellulose) (HPC), evaluated on day 30) was 144 % of control and the T/C (T/C endpoint: median tumor weight (est.), dose: 200.0 mg/kg/injection, schedule: Q07DX005 (ip), vehicle: Klucel (hydroxypropylcellulose) (HPC), evaluated on day 30) is 128 % of control.

`C(=N/NC1=NCCN1)/c1c2ccccc2c(/C=N\NC2=NCCN2)c2ccccc12`: the survivor count is given as 5 of 10 on day 32 (T/C endpoint: median tumor weight change, dose: 200.0 mg/kg/injection, schedule: Q01DX001 (ip), vehicle: saline) and 0 of 10 on day 32 (T/C endpoint: median tumor weight change, dose: 400.0 mg/kg/injection, schedule: Q01DX001 (ip), vehicle: saline).

For `O=C(O)C1CC1.[Ag]`, the survivor count is 1 of 10 on day 30 (T/C endpoint: median tumor weight (est.), dose: 25.0 mg/kg/injection, schedule: Q07DX005 (ip), vehicle: distilled water + Tween-80); 0 of 10 on day 30 (T/C endpoint: median tumor weight (est.), dose: 50.0 mg/kg/injection, schedule: Q07DX005 (ip), vehicle: distilled water + Tween-80); 0 of 10 on day 30 (T/C endpoint: median tumor weight (est.), dose: 100.0 mg/kg/injection, schedule: Q07DX005 (ip), vehicle: distilled water + Tween-80); 0 of 10 on day 30 (T/C endpoint: median tumor weight (est.), dose: 200.0 mg/kg/injection, schedule: Q07DX005 (ip), vehicle: distilled water + Tween-80).

On to `OCC1OC(n2cnc3c2NC=NC[C@H]3O)CC1O` (some centres not stated), for which, where the note is “T/C endpoint: median tumor weight (est.), dose: 1.0 mg/kg/injection, schedule: Q07DX005 (ip), vehicle: water, evaluated on day 30”, the T/C was 148 % of control.

Turning to `CO[C@@]12[C@H](COC(N)=O)C3=C(C(=O)C(C)=C(N)C3=O)N1C[C@@H]1N[C@@H]12`, the T/C was 87 % of control (T/C endpoint: median tumor weight change, dose: 1.25 mg/kg/injection, schedule: Q01DX001 (ip), vehicle: saline, evaluated on day 27); 38 % of control [9 of 10 alive on day 31] (T/C endpoint: median tumor weight change, dose: 1.25 mg/kg/injection, schedule: Q01DX001 (ip), vehicle: saline, evaluated on day 31); 83 % of control (T/C endpoint: median tumor weight change, dose: 1.25 mg/kg/injection, schedule: Q01DX001 (ip), vehicle: saline, evaluated on day 33); 31 and 63 % of control [9 of 10 alive on day 37] (T/C endpoint: median tumor weight change, dose: 1.25 mg/kg/injection, schedule: Q01DX001 (ip), vehicle: saline, evaluated on day 37); 63 % of control (T/C endpoint: median tumor weight change, dose: 2.5 mg/kg/injection, schedule: Q01DX001 (ip), vehicle: saline, evaluated on day 27); 25 % of control (T/C endpoint: median tumor weight change, dose: 2.5 mg/kg/injection, schedule: Q01DX001 (ip), vehicle: saline, evaluated on day 28). Besides, the T/C was 12 % of control (T/C endpoint: median tumor weight change, dose: 2.5 mg/kg/injection, schedule: Q01DX001 (ip), vehicle: saline, evaluated on day 31); 52 % of control (T/C endpoint: median tumor weight change, dose: 2.5 mg/kg/injection, schedule: Q01DX001 (ip), vehicle: saline, evaluated on day 33); 17 and 67 % of control [9 of 10 alive on day 37] (T/C endpoint: median tumor weight change, dose: 2.5 mg/kg/injection, schedule: Q01DX001 (ip), vehicle: saline, evaluated on day 37); 10 % of control (T/C endpoint: median tumor weight change, dose: 5.0 mg/kg/injection, schedule: Q01DX001 (ip), vehicle: saline, evaluated on day 27); 11 % of control (T/C endpoint: median tumor weight change, dose: 5.0 mg/kg/injection, schedule: Q01DX001 (ip), vehicle: saline, evaluated on day 28); 2 % of control (T/C endpoint: median tumor weight change, dose: 5.0 mg/kg/injection, schedule: Q01DX001 (ip), vehicle: saline, evaluated on day 31). In addition, the T/C by setting is: (T/C endpoint: median tumor weight change, dose: 5.0 mg/kg/injection, schedule: Q01DX001 (ip), vehicle: saline, evaluated on day 33) -27 % of control; (T/C endpoint: median tumor weight change, dose: 5.0 mg/kg/injection, schedule: Q01DX001 (ip), vehicle: saline, evaluated on day 37) -29 and 4 % of control [9 of 10 alive on day 37]; (T/C endpoint: median tumor weight change, dose: 10.0 mg/kg/injection, schedule: Q01DX001 (ip), vehicle: saline, evaluated on day 27) -71 % of control [8 of 10 alive on day 27]; (T/C endpoint: median tumor weight change, dose: 10.0 mg/kg/injection, schedule: Q01DX001 (ip), vehicle: saline, evaluated on day 28) -9 % of control; (T/C endpoint: median tumor weight change, dose: 10.0 mg/kg/injection, schedule: Q01DX001 (ip), vehicle: saline, evaluated on day 33) -75 % of control. Moreover, the survivor count is, setting by setting: (T/C endpoint: median tumor weight change, dose: 10.0 mg/kg/injection, schedule: Q01DX001 (ip), vehicle: saline) 0 of 10 on day 37, 5 of 10 on day 31, 5 of 10 on day 37; (T/C endpoint: median tumor weight change, dose: 20.0 mg/kg/injection, schedule: Q01DX001 (ip), vehicle: saline) 0 of 10 on day 27, 0 of 10 on day 33, 0 of 10 on day 37, 1 of 10 on day 31, 1 of 10 on day 37, 4 of 10 on day 28.

Take `c1ccc([Te][Te]c2ccccc2)cc1`: the survivor count (T/C endpoint: median tumor weight change, dose: 600.0 mg/kg/injection, schedule: Q01DX001 (ip), vehicle: Klucel (hydroxypropylcellulose) (HPC)) is 2 of 10 on day 32.

Consider `C/C(=N\N=C(/[Se])N1CC2CCC(CC2)C1)c1ccccn1`, for which the T/C (T/C endpoint: median tumor weight change, dose: 31.25 mg/kg/injection, schedule: Q01DX001 (ip), vehicle: Klucel (hydroxypropylcellulose) (HPC), evaluated on day 29) was 130 % of control. For the same compound, the survivor count (T/C endpoint: median tumor weight change, dose: 125.0 mg/kg/injection, schedule: Q01DX001 (ip), vehicle: Klucel (hydroxypropylcellulose) (HPC)) was 2 of 10 on day 32.

Take `Cn1cc(C2NC(=O)c3ccccc3N2)c2ccccc21` (configuration not stated): the survivor count under setting [2] is listed as 0 of 10 on day 38.

In the case of `Cc1c2cc(Cl)c3ccccc3c2c[n+]2ccccc12`, the survivor count (T/C endpoint: median tumor weight (est.), dose: 400.0 mg/kg/injection, schedule: Q07DX005 (ip), vehicle: saline with Tween-80) was 0 of 10 on day 30 and 3 of 10 on day 30.
